Results on two molecules are retold here after paper doi:10.1101/625533.

Results are given in words; binding and its absence hold for the method and conditions named. Binding seen in cells or lysates may run through a third protein. Some entries that bind do so weakly or less than the wild type. Sequences can lack the tags named with a protein.

Experiment [1] has as its target mouse prestin carrying N7T and N308S, tagged with Venus or CFP (mouse) (UniProt Q99NH7). Kind of experiment: FRET or BRET. (In general: Bioluminescence resonance energy transfer reports proximity on the nanometre scale.)
In experiment [2] the target is T1, wild-type mouse prestin, tagged with Venus or CFP (mouse), Q99NH7.
T1 chain: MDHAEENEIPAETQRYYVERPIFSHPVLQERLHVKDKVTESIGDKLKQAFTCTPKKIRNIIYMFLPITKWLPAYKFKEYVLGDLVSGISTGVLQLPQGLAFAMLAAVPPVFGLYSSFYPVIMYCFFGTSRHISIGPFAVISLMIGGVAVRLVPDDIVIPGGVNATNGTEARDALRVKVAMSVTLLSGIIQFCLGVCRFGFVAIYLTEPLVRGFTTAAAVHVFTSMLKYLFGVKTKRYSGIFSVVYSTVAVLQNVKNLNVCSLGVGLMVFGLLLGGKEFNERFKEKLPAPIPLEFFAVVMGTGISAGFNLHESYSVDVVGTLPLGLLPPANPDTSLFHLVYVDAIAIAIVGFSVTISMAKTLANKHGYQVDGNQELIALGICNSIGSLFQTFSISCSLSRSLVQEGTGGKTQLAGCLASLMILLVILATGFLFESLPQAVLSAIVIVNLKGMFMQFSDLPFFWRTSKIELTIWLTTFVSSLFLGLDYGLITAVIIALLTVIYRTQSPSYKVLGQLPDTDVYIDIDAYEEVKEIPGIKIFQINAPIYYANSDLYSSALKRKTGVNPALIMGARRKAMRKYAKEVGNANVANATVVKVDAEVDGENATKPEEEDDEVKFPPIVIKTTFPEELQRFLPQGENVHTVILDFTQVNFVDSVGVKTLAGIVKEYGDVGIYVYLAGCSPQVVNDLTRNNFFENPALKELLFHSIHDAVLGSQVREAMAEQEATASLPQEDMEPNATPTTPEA
Nature of the experiment: FRET or BRET. To be noted: remark: other sources report otherwise.

B1: mouse prestin carrying N7T and N308S, tagged with Venus or CFP (protein, UniProt Q99NH7 1-744)
chain: MDHAEETEIPAETQRYYVERPIFSHPVLQERLHVKDKVTESIGDKLKQAFTCTPKKIRNIIYMFLPITKWLPAYKFKEYVLGDLVSGISTGVLQLPQGLAFAMLAAVPPVFGLYSSFYPVIMYCFFGTSRHISIGPFAVISLMIGGVAVRLVPDDIVIPGGVNATNGTEARDALRVKVAMSVTLLSGIIQFCLGVCRFGFVAIYLTEPLVRGFTTAAAVHVFTSMLKYLFGVKTKRYSGIFSVVYSTVAVLQNVKNLNVCSLGVGLMVFGLLLGGKEFNERFKEKLPAPIPLEFFAVVMGTGISAGFSLHESYSVDVVGTLPLGLLPPANPDTSLFHLVYVDAIAIAIVGFSVTISMAKTLANKHGYQVDGNQELIALGICNSIGSLFQTFSISCSLSRSLVQEGTGGKTQLAGCLASLMILLVILATGFLFESLPQAVLSAIVIVNLKGMFMQFSDLPFFWRTSKIELTIWLTTFVSSLFLGLDYGLITAVIIALLTVIYRTQSPSYKVLGQLPDTDVYIDIDAYEEVKEIPGIKIFQINAPIYYANSDLYSSALKRKTGVNPALIMGARRKAMRKYAKEVGNANVANATVVKVDAEVDGENATKPEEEDDEVKFPPIVIKTTFPEELQRFLPQGENVHTVILDFTQVNFVDSVGVKTLAGIVKEYGDVGIYVYLAGCSPQVVNDLTRNNFFENPALKELLFHSIHDAVLGSQVREAMAEQEATASLPQEDMEPNATPTTPEA
In the case of B1, the binding result in experiment [1] is “binds”.

B2: wild-type mouse prestin, tagged with Venus or CFP, Q99NH7 1-744 (protein)
chain: MDHAEENEIPAETQRYYVERPIFSHPVLQERLHVKDKVTESIGDKLKQAFTCTPKKIRNIIYMFLPITKWLPAYKFKEYVLGDLVSGISTGVLQLPQGLAFAMLAAVPPVFGLYSSFYPVIMYCFFGTSRHISIGPFAVISLMIGGVAVRLVPDDIVIPGGVNATNGTEARDALRVKVAMSVTLLSGIIQFCLGVCRFGFVAIYLTEPLVRGFTTAAAVHVFTSMLKYLFGVKTKRYSGIFSVVYSTVAVLQNVKNLNVCSLGVGLMVFGLLLGGKEFNERFKEKLPAPIPLEFFAVVMGTGISAGFNLHESYSVDVVGTLPLGLLPPANPDTSLFHLVYVDAIAIAIVGFSVTISMAKTLANKHGYQVDGNQELIALGICNSIGSLFQTFSISCSLSRSLVQEGTGGKTQLAGCLASLMILLVILATGFLFESLPQAVLSAIVIVNLKGMFMQFSDLPFFWRTSKIELTIWLTTFVSSLFLGLDYGLITAVIIALLTVIYRTQSPSYKVLGQLPDTDVYIDIDAYEEVKEIPGIKIFQINAPIYYANSDLYSSALKRKTGVNPALIMGARRKAMRKYAKEVGNANVANATVVKVDAEVDGENATKPEEEDDEVKFPPIVIKTTFPEELQRFLPQGENVHTVILDFTQVNFVDSVGVKTLAGIVKEYGDVGIYVYLAGCSPQVVNDLTRNNFFENPALKELLFHSIHDAVLGSQVREAMAEQEATASLPQEDMEPNATPTTPEA
B2: the binding result in experiment [2] is listed as “no binding”.
